Our source for the cell viability values is the supplement of paper PMC9744312.

Structures can show the parent of a compound that is named as a salt. This is one part of the list. Single values of this set are uncertain.

For this assay, the system named is Peyronie's disease tunica albuginea primary fibroblasts. Nature of the assay: cell viability (DRAQ5 nuclear stain) relative to TGF-beta1-only control; higher = more viable cells. The settings on record: 10 µM; TGF-beta1 10 ng/mL; 72 h.
Take `C[C@]12CCC3=C4CCC(=O)C=C4CC[C@H]3[C@@H]1CC[C@@]2(O)CC#N` [Dienogest]: the cell viability is 97.6%.
With `CCOc1ccc2nc(S(N)(=O)=O)sc2c1` [Ethoxzolamide] the figure was 83.5%; with `CCOC(=O)[C@H](CCc1ccccc1)N[C@@H](C)C(=O)N1C(=O)N(C)C[C@H]1C(=O)O` [Imidapril HCl], 93.3%; with `C[C@@H]1C[C@H]2[C@@H]3CCC4=CC(=O)C=C[C@]4(C)[C@@]3(Cl)[C@@H](O)C[C@]2(C)[C@@]1(OC(=O)c1ccco1)C(=O)CCl` [Mometasone furoate], 84.4%.
With `Cc1ccc(-n2nc(C(C)(C)C)cc2NC(=O)NCc2cc(F)ccc2Oc2ccc3c(cnn3CCO)c2)cc1` [Pexmetinib (ARRY-614)] the figure was 121%; with `O=C(NC[C@H](O)CO)c1ccncc1Nc1ccc(I)cc1F`, 66.6%; with `CC1(C)S[C@@H]2[C@H](NC(=O)[C@H](N)c3ccccc3)C(=O)N2[C@H]1C(=O)O` [Ampicillin Trihydrate], 96.8%.
With `CC1(C)S[C@@H]2[C@H](NC(=O)[C@H](N)c3ccccc3)C(=O)N2[C@H]1C(=O)O` [Ampicillin sodium] the figure was 90.9%; with `O=c1n(CCCN2CCN(c3cccc(Cl)c3)CC2)nc2ccccn12` [Trazodone HCl], 92.4%.
On to `O=C(O)c1cc(=O)[nH]c(=O)[nH]1` [Orotic acid (6-Carboxyuracil)], for which the cell viability was 97.4%.
With `C[C@]12CCC(=O)C=C1[C@@H]1C[C@@H]1[C@H]1[C@@H]3[C@@H]4C[C@@H]4[C@@]4(CCC(=O)O4)[C@@]3(C)CC[C@@H]12` [Drospirenone] the figure was 103%; with `COc1ccc2cc([C@H](C)C(=O)O)ccc2c1` [Naproxen Sodium], 101%; with `O=C(O)c1ccccc1OP(=O)(O)O` [Fosfosal], 96.4%.
Take `Cc1ncc([N+](=O)[O-])n1CC(C)O` (centres undefined) [Secnidazole]: the cell viability turned out to be 96.3%.
Turning to `CC1=C(/C=C/C(C)=C/C=C/C(C)=C/CO)C(C)(C)CCC1` [Vitamin A], the cell viability came to 96%.
For `COc1c(-c2ccc3cc(NS(C)(=O)=O)ccc3c2)cc(-n2ccc(=O)[nH]c2=O)cc1C(C)(C)C` [Dasabuvir(ABT-333)], the cell viability was 91.2%.
Regarding `Cc1[nH]c(=O)c(C#N)cc1-c1ccc2nccn2c1` [Olprinone], the cell viability turned out to be 92.4%.
For the compound `CC(=O)O[C@H]1C(=O)[C@@]2(C)[C@H]([C@H](OC(=O)c3ccccc3)[C@]3(O)C[C@H](OC(=O)[C@H](O)[C@@H](NC(=O)c4ccccc4)c4ccccc4)C(C)=C1C3(C)C)[C@]1(OC(C)=O)CO[C@@H]1C[C@@H]2O` [Paclitaxel], the cell viability was 57.8%.
With `O=C([O-])[C@H](O)[C@@H](O)[C@H](O)[C@H](O)CO.O=C([O-])[C@H](O)[C@@H](O)[C@H](O)[C@H](O)CO.[Ca+2]` [Calcium gluconate] the figure was 107%; with `CCCN(CCC)CCc1cccc2c1CC(=O)N2` [Ropinirole HCl], 94%; with `O[C@H]1[C@H](O)[C@@H](O)[C@H](O)[C@@H](O)[C@H]1O` [i-Inositol], 93.5%.
Turning to `COc1cccc2c1C(=O)c1c(O)c3c(c(O)c1C2=O)C[C@@](O)(C(=O)CO)C[C@@H]3O[C@H]1C[C@H](N)[C@@H](O)[C@H](C)O1` [Epirubicin HCl], the cell viability is 67.6%.
In the case of `CSc1nc2cc(Cl)c(Oc3cccc(Cl)c3Cl)cc2[nH]1` [Triclabendazole], the cell viability was found to be 91.9%.
In the case of `Cc1ccccc1N1CCN(CCc2nnc3n2CCCC3)CC1` [Dapiprazole Hydrochloride] it was 91.7%; in that of `O=C(CCNNC(=O)c1ccncc1)NCc1ccccc1` [Nialamide], 91.6%; in that of `CCCCC[C@H](O)/C=C/[C@H]1[C@H](O)CC(=O)[C@@H]1C/C=C\CCCC(=O)O` [Prostaglandin E2 (PGE2)], 88.5%.
With `O=C1[C@@H]2[C@H]3CC[C@H](C3)[C@@H]2C(=O)N1C[C@@H]1CCCC[C@H]1CN1CCN(c2nsc3ccccc23)CC1` [lurasidone] the figure was 87.9%; with `Cn1cnc2c(F)c(Nc3ccc(Br)cc3F)c(C(=O)NOCCO)cc21`, 66.9%.
With `NC(=O)c1cnccn1` [Pyrazinamide] the figure was 92.2%; with `CO[C@@H]1[C@H](OC(=O)/C=C/C=C/C=C/C=C/C(=O)O)CC[C@]2(CO2)[C@H]1[C@@]1(C)O[C@@H]1CC=C(C)C` [Fumagillin], 72.8%; with `C[C@@H](O)[C@H]1C(=O)N2C(C(=O)O)=C(S[C@@H]3CN[C@H](C(=O)N(C)C)C3)[C@H](C)[C@H]12` [Meropenem Trihydrate], 51.7%.
Turning to `C[C@@H](O)[C@H]1C(=O)N2C(C(=O)O)=C(S[C@@H]3CN[C@H](C(=O)N(C)C)C3)[C@H](C)[C@H]12` [Meropenem], the cell viability was found to be 111%.
With `Cc1cc(C)cc(OCC2CNC(=O)O2)c1` (centres undefined) [Metaxalone] the figure was 93%; with `CC(=O)O[C@H]1C[C@@H]2CC[C@@H]3[C@H](CC[C@@]4(C)[C@H]3C[C@H]([N+]3(C)CCCCC3)[C@@H]4OC(C)=O)[C@@]2(C)C[C@@H]1N1CCCCC1` [Vecuronium Bromide], 98.3%; with `COc1ccc(NC(=O)c2ccc(C(=N)N(C)C)cc2)c(C(=O)Nc2ccc(Cl)cn2)c1` [Betrixaban maleate], 85%.
With `COc1ccc(NC(=O)c2ccc(C(=N)N(C)C)cc2)c(C(=O)Nc2ccc(Cl)cn2)c1` [Betrixaban] the figure was 87.1%.
With `CC1(C)O[C@@H]2C[C@H]3[C@@H]4CCC5=CC(=O)CC[C@]5(C)[C@@]4(F)[C@@H](O)C[C@]3(C)[C@]2(C(=O)CCl)O1` [Halcinonide] the figure was 59.1%; with `C[C@]12C=CC(=O)C=C1CC[C@H]1[C@@H]3C[C@@H](O)[C@](O)(C(=O)CO)[C@@]3(C)C[C@H](O)[C@@]12F` [Triamcinolone], 73.5%; with `CCN(CC)C(=O)/C(C#N)=C/c1cc(O)c(O)c([N+](=O)[O-])c1` [Entacapone], 103%.
In the case of `C[C@@H]1O[C@@H](OC[C@H]2O[C@@H](Oc3c(-c4ccc(OCCO)c(OCCO)c4)oc4cc(OCCO)cc(O)c4c3=O)[C@H](O)[C@@H](O)[C@@H]2O)[C@H](O)[C@H](O)[C@H]1O` [Troxerutin], the cell viability came to 87.9%.
In the case of `C=C1CCN([C@H](C)[C@](O)(Cn2cncn2)c2ccc(F)cc2F)CC1` [Efinaconazole], the cell viability was determined as 90%.
In the case of `OC(c1cc(C(F)(F)F)nc2c(C(F)(F)F)cccc12)C1CCCCN1` (centres undefined) [Mefloquine HCl] it was 43.2%.
With `CNCCCC12CCC(c3ccccc31)c1ccccc12` [Maprotiline HCl], the cell viability came out at 87.5%.
Take `CC[C@H]1OC(=O)C[C@@H](O)[C@H](C)[C@@H](O[C@@H]2O[C@H](C)[C@@H](O)[C@H](N(C)C)[C@H]2O)[C@@H](CCN2C[C@H](C)C[C@H](C)C2)C[C@@H](C)C(=O)/C=C/C(C)=C/[C@@H]1CO[C@@H]1O[C@H](C)[C@@H](O)[C@@H](OC)[C@H]1OC` [Tilmicosin]: the cell viability turned out to be 25.3%.
In the case of `CC[C@H]1OC(=O)C[C@@H](O)[C@H](C)[C@@H](O[C@@H]2O[C@H](C)[C@@H](O)[C@H](N(C)C)[C@H]2O)[C@@H](CCN2C[C@H](C)C[C@H](C)C2)C[C@@H](C)C(=O)/C=C/C(C)=C/[C@@H]1CO[C@@H]1O[C@H](C)[C@@H](O)[C@@H](OC)[C@H]1OC` [Tilmicosin phosphate] it was 92.3%; in that of `CCCCCC(=O)O[C@]1(C(C)=O)CC[C@H]2[C@@H]3CCC4=CC(=O)CC[C@]4(C)[C@H]3CC[C@@]21C` [Hydroxyprogesterone caproate], 84%; in that of `CC1(C)C[C@@H]1C(=O)N/C(=C\CCCCSC[C@H](N)C(=O)O)C(=O)O` [Cilastatin], 100%.
With `CCCCCNC(=N)N/N=C/c1c[nH]c2ccc(OC)cc12` [Tegaserod Maleate] the figure was 59.7%; with `NS(=O)(=O)c1cc(Cl)c(Cl)c(S(N)(=O)=O)c1` [Dichlorphenamide (Diclofenamide)], 78%; with `COc1c(C)c2c(c(O)c1C/C=C(\C)CCC(=O)O)C(=O)OC2` [Mycophenolic acid], 59.3%.
In the case of `Cc1onc(-c2c(F)cccc2Cl)c1C(=O)N[C@@H]1C(=O)N2[C@@H]1SC(C)(C)[C@@H]2C(=O)O` [Flucloxacillin sodium] it was 98.6%; in that of `C[C@H](Cc1cc2c(c(C(N)=O)c1)N(CCCO)CC2)NCCOc1ccccc1OCC(F)(F)F` [Silodosin], 69.8%; in that of `CCCC(CCC)C(=O)O[C@H]1C[C@H]2CC[C@@H](C1)[N+]2(C)C` [Anisotropine Methylbromide], 103%.
For the compound `O=C(NCCN1CCOCC1)c1ccc(Cl)cc1`, the cell viability amounted to 90.2%.
`CN1C(=O)OC(C)(C)C1=O` [Trimethadione]: the cell viability is 90.6%.
In the case of `CC(=O)CCCCn1c(=O)c2c(ncn2C)n(C)c1=O` [Pentoxifylline], the cell viability stood at 85.4%.
In the case of `Nc1c(CC(=O)O)cccc1C(=O)c1ccc(Br)cc1` [Bromfenac Sodium] it was 82.5%.
With `CC(C)(C)c1nc(-c2cccc(NS(=O)(=O)c3c(F)cccc3F)c2F)c(-c2ccnc(N)n2)s1` [Dabrafenib Mesylate] the figure was 127%.
With `CC(C)(C)c1nc(-c2cccc(NS(=O)(=O)c3c(F)cccc3F)c2F)c(-c2ccnc(N)n2)s1` the figure was 136%; with `C[C@H]1O[C@@H](n2cc(F)c(=O)[nH]c2=O)[C@H](O)[C@@H]1O` [Doxifluridine], 84.7%; with `CCOC(=O)[C@H](CCc1ccccc1)N[C@@H](C)C(=O)N(CC(=O)O)C1Cc2ccccc2C1` [Delapril Hydrochloride], 97.5%.
With `C[C@H](Cn1cnc2c(N)ncnc21)OCP(=O)(O)O` [Tenofovir], the cell viability is 96.3%.
As to `CCCCNc1cc(C(=O)O)cc(S(N)(=O)=O)c1Oc1ccccc1` [Bumetanide], the cell viability came to 89.8%.
With `Cn1cc(C(=O)[C@@H]2CCc3[nH]cnc3C2)c2ccccc21` [Ramosetron Hydrochloride] the figure was 91%.
